PubChem BioAssay AID250 (DTP/NCI, 2004)
The list does not hold the whole screen: it gathers tests that were run many times, whatever their T/C, doses with no T/C, and many T/C values between a quarter and a half above the control. Further doses and runs are listed elsewhere. T/C is the treated group as % of the vehicle group. Some doses have a count of surviving animals in place of a T/C: the source holds a T/C of zero for them, seemingly a mark for toxic or unscored doses. For some of these results: Counts of survivors are from the toxicity check (mostly the fifth day) where no day follows; animals may have died later. Schedule codes are those of the source, read here as Q, the interval in days (D) or hours (H), X, the number of doses. Some schedules carry Z or #; the key to these is not given. Some doses were run more than once; the results are listed from low to high. Where survival is the endpoint, this PubChem deposit counts one and a half times the control or more as active, and values a quarter to a half above the control carry no call in these data; other NCI protocols may use other cut-offs. Some T/C values carry the count of animals alive at the toxicity check (mostly the fifth day); without a count, all were alive then. Counts like (3×) give the number of equal values in this list.

What was measured:
[1] = tested on: BDF1 mice, L1210 leukemia sc, survival T/C; experiment: NCI In Vivo Anticancer Drug Screen. Data for tumor model L1210 Leukemia (subcutaneous) in B6D2F1 (BDF1) mice; conditions: T/C endpoint: median survival time, higher T/C = longer survival
How it was run: (§1)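 Transplantable tumor-bearing mice; survival or tumor size recorded; result = T/C, treated vs vehicle control.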

[2] = tested on: BDF1 mice, L1210 leukemia sc; experiment: as above; conditions: T/C endpoint: median survival time, vehicle: other, higher T/C = longer survival
How it was run: as §1

[3] = dose: 8.4 mg/kg/injection, schedule: Q01DX Z (sc), vehicle: methylcellulose (MC)
[4] = dose: 14.0 mg/kg/injection, schedule: Q01DX Z (sc), vehicle: methylcellulose (MC)

**Q.** For `S=c1nc[nH]c2nc[nH]c12`, which survivor count ([1]; dose: 5.0 mg/kg/injection, schedule: Q01DX Z (sc), vehicle: methylcellulose (MC)) is on record?
**A.** 4 of 10

**Q.** What about the survivor count ([1]; dose: 8.4 mg/kg/injection, schedule: Q01DX Z (oral), vehicle: methylcellulose (MC)) of the same compound?
**A.** 4 of 10

**Q.** And the T/C [1, 3]?
**A.** 100 [8 of 10 alive] and 100 % of control [9 of 10 alive]

**Q.** What about the survivor count [1, 3] of the same compound?
**A.** 1 of 10 and 3 of 10

**Q.** What about the T/C [1, 4] of the same compound?
**A.** 109 % of control [9 of 10 alive]

**Q.** And the survivor count [1, 4]?
**A.** 0 of 10 and 6 of 10

**Q.** What about the survivor count ([1]; dose: 23.0 mg/kg/injection, schedule: Q01DX Z (oral), vehicle: methylcellulose (MC)) of the same compound?
**A.** 0 of 10

**Q.** And the survivor count ([1]; dose: 23.0 mg/kg/injection, schedule: Q01DX Z (sc), vehicle: methylcellulose (MC))?
**A.** 3 of 10 and 6 of 10

**Q.** And the T/C ([1]; dose: 23.0 mg/kg/injection, schedule: Q01DX Z (sc), vehicle: other, evaluated on day 40)?
**A.** 120 % of control

**Q.** And the T/C ([1]; dose: 23.0 mg/kg/injection, schedule: Q01DX Z (sc), vehicle: other, evaluated on day 60)?
**A.** 100 % of control

**Q.** And the T/C ([1]; dose: 23.0 mg/kg/injection, schedule: Q01DX Z (sc), vehicle: other, run until all animals had died)?
**A.** 95, 100 (2×), 105 % of control

**Q.** And the survivor count ([1]; dose: 39.0 mg/kg/injection, schedule: Q01DX Z (oral), vehicle: methylcellulose (MC))?
**A.** 0 of 10 and 5 of 10

**Q.** And the survivor count ([1]; dose: 39.0 mg/kg/injection, schedule: Q01DX Z (sc), vehicle: methylcellulose (MC))?
**A.** 2 of 10 and 6 of 10

**Q.** And the T/C ([1]; dose: 39.0 mg/kg/injection, schedule: Q01DX Z (sc), vehicle: other, evaluated on day 60)?
**A.** 104 % of control

**Q.** And the T/C ([1]; dose: 39.0 mg/kg/injection, schedule: Q01DX Z (sc), vehicle: other, run until all animals had died)?
**A.** 94, 105 [8 of 10 alive], 110, 155 % of control

**Q.** And the survivor count ([1]; dose: 65.0 mg/kg/injection, schedule: Q01DX Z (oral), vehicle: methylcellulose (MC))?
**A.** 1 of 10

**Q.** What about the survivor count ([1]; dose: 65.0 mg/kg/injection, schedule: Q01DX Z (sc), vehicle: methylcellulose (MC)) of the same compound?
**A.** 2 of 10

**Q.** What about the T/C ([1]; dose: 65.0 mg/kg/injection, schedule: Q01DX Z (sc), vehicle: other, evaluated on day 40) of the same compound?
**A.** 165 % of control

**Q.** And the T/C ([1]; dose: 65.0 mg/kg/injection, schedule: Q01DX Z (sc), vehicle: other, evaluated on day 60)?
**A.** 154 % of control

**Q.** What about the T/C ([1]; dose: 65.0 mg/kg/injection, schedule: Q01DX Z (sc), vehicle: other, run until all animals had died) of the same compound?
**A.** 120, 150, 166, 170, 173 % of control

**Q.** And the survivor count ([1]; dose: 108.0 mg/kg/injection, schedule: Q01DX Z (oral), vehicle: methylcellulose (MC))?
**A.** 1 of 10

**Q.** What about the T/C ([1]; dose: 108.0 mg/kg/injection, schedule: Q01DX Z (sc), vehicle: methylcellulose (MC)) of the same compound?
**A.** 155 % of control [7 of 10 alive]

**Q.** And the T/C ([1]; dose: 108.0 mg/kg/injection, schedule: Q01DX Z (sc), vehicle: other, evaluated on day 40)?
**A.** 155 % of control

**Q.** What about the T/C ([1]; dose: 108.0 mg/kg/injection, schedule: Q01DX Z (sc), vehicle: other, evaluated on day 60) of the same compound?
**A.** 154 % of control

**Q.** And the T/C ([1]; dose: 108.0 mg/kg/injection, schedule: Q01DX Z (sc), vehicle: other, run until all animals had died)?
**A.** 90 [9 of 10 alive], 150 (2×), 159, 168, 177, 180 % of control

**Q.** What about the survivor count ([1]; dose: 180.0 mg/kg/injection, schedule: Q01DX Z (oral), vehicle: methylcellulose (MC)) of the same compound?
**A.** 3 of 10

**Q.** What about the T/C ([1]; dose: 180.0 mg/kg/injection, schedule: Q01DX Z (sc), vehicle: other, evaluated on day 40) of the same compound?
**A.** 110 % of control

**Q.** And the survivor count ([1]; dose: 180.0 mg/kg/injection, schedule: Q01DX Z (sc), vehicle: other)?
**A.** 2 of 10

**Q.** And the T/C ([1]; dose: 180.0 mg/kg/injection, schedule: Q01DX Z (sc), vehicle: other, run until all animals had died)?
**A.** 150 (2×), 154, 155, 157 % of control

**Q.** What about the survivor count ([1]; dose: 240.0 mg/kg/injection, schedule: Q01DX009 (ip), vehicle: saline) of the same compound?
**A.** 5 of 10

**Q.** What about the survivor count ([1]; dose: 300.0 mg/kg/injection, schedule: Q01DX001 (sc), vehicle: other) of the same compound?
**A.** 5 of 10

**Q.** And the survivor count ([1]; dose: 300.0 mg/kg/injection, schedule: Q01DX Z (oral), vehicle: methylcellulose (MC))?
**A.** 5 of 10

**Q.** And the survivor count ([1]; dose: 300.0 mg/kg/injection, schedule: Q01DX Z (sc), vehicle: other)?
**A.** 4 of 10 and 6 of 10

**Q.** What about the survivor count ([1]; dose: 300.0 mg/kg/injection, schedule: Q02DX Z (sc), vehicle: other) of the same compound?
**A.** 6 of 10

**Q.** What about the survivor count ([1]; dose: 300.0 mg/kg/injection, schedule: Q07DX Z (sc), vehicle: other) of the same compound?
**A.** 5 of 8

**Q.** And the survivor count ([1]; dose: 300.0 mg/kg/injection, schedule: Q## X Z (sc), vehicle: other)?
**A.** 4 of 10

**Q.** And the survivor count ([1]; dose: 500.0 mg/kg/injection, schedule: Q01DX001 (sc), vehicle: other)?
**A.** 2 of 10

**Q.** What about the survivor count ([1]; dose: 500.0 mg/kg/injection, schedule: Q01DX Z (oral), vehicle: methylcellulose (MC)) of the same compound?
**A.** 5 of 10

**Q.** And the survivor count ([1]; dose: 500.0 mg/kg/injection, schedule: Q07DX Z (sc), vehicle: other)?
**A.** 1 of 10

**Q.** And the survivor count ([1]; dose: 500.0 mg/kg/injection, schedule: Q## X Z (sc), vehicle: other)?
**A.** 4 of 10

**Q.** And the T/C ([2]; dose: 8.4 mg/kg/injection, schedule: Q## X Z (sc))?
**A.** 147 % of control

**Q.** And the T/C ([2]; dose: 10.0 mg/kg/injection, schedule: Q01DX009 (ip))?
**A.** 137 % of control

**Q.** What about the T/C ([2]; dose: 14.0 mg/kg/injection, schedule: Q## X Z (sc)) of the same compound?
**A.** 147 % of control
